According to the supplement of paper PMC10338343:
± gives the standard deviation. This is a selection; strong and weak results do not stand in their true shares. The uncertainty is large for many entries. The list shows a part of the results.

The sequences below were run on MIWI (PIWIL1) piRISC loaded with L1MC piRNA (30 nt) (assay: pre-steady-state target cleavage rate (min^-1); higher = faster piRNA-guided slicing of the target). Conditions: guide: L1MC piRNA 5'p-UAACUAAAUACUAUGCAAGCUGUAGGUCCU; auxiliary factor: none (no GTSF1).
Procedure, shortened: (§1)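 Cleave-'n-Seq used a transcribed, DNA-blocked target RNA library at 0.1 nM and active affinity-purified piRISC with one synthetic guide at 1 nM, with or without 500 nM GTSF1 partner protein, in HEPES–potassium acetate buffer at 33 °C for 0–8 or 0–960 min. Uncleaved targets were sequenced and normalised to depth and to weakly complementary targets, and three trials were pooled with k3 capped at 0.0001 min^-1. The pre-steady-state cleavage rate was estimated by a burst-and-steady-state fit.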
In the case of UCCUGGAUGUCGAUACAUAGUAUUUAGUUA, the “pre-steady-state target cleavage rate” value is reported as 0.000339 ± 0.015. UCCUGGAUGUCGAAGCAUAGUAUUAUAGUUA was tested, and the “pre-steady-state target cleavage rate” value was 0.000721 ± 0.0086. With UCCUGCUACAGCUUCGUUAGUAUUUAGAAA the “pre-steady-state target cleavage rate” value was 0.000594 ± 0.01. In the case of UCCUCCUACAGCUUGCAUAGUAAAAAGUUA, the “pre-steady-state target cleavage rate” value is reported as 0.00183 ± 0.0031. In the case of UCCUGGUACAGCUUGGAUAGUAUUUACAAA, the “pre-steady-state target cleavage rate” value is reported as 0.00117 ± 0.004. For UCCUGGAUGUCCUUGCAAUAGUAUUUAGUUA, the “pre-steady-state target cleavage rate” value was 0.00159 ± 0.0052. In the case of UCCUGCUACAGCUUGCAUAGUUAUUAGUAA, the “pre-steady-state target cleavage rate” value is reported as 0.00267 ± 0.0029. For UCCUCGUACAGCUUGCAUAGUAUUUAGUUA, the “pre-steady-state target cleavage rate” value was 0.0602 ± 0.01. For UCCUGGAUGUCGUACCAUAGUAUUUAGUUA, the “pre-steady-state target cleavage rate” value was 0.000459 ± 0.015. For UCCUGGAUGUCGAACGUAAUAUUUAGUUA, the “pre-steady-state target cleavage rate” value was 0.000287 ± 0.027. In the case of UCCUGGAACAGCUUGCAUUCUAUUUACAAA, the “pre-steady-state target cleavage rate” value is reported as 0.000277 ± 0.01. With UCCUGGAUGUCGUAGCUUAGUAUUUAGUUA the “pre-steady-state target cleavage rate” value was 0.000844 ± 0.0077. In the case of UCCUGGAUCAGCUUGCAUACUAUUUUCAAA, the “pre-steady-state target cleavage rate” value is reported as 0.000656 ± 0.013. For UCCUGGAACAGCUUGCAUUCUAUUUUCAAA, the “pre-steady-state target cleavage rate” value was 0.000824 ± 0.0067. For UCCUGGUACAGCUUGCAUUCAAUUUAGUUA, the “pre-steady-state target cleavage rate” value was 0.000302 ± 0.012.

These sequences were tested on EfPiwi piRISC loaded with L1MC piRNA (26 nt) (assay: pre-steady-state target cleavage rate (min^-1); guide: L1MC piRNA 5'p-UAACUAAAUACUAUGCAAGCUGUAGG; MIWI and MILI are mouse PIWI proteins and EfPiwi is from a freshwater sponge; tags in brackets are library labels; higher = faster piRNA-guided slicing of the target). Conditions: auxiliary factor: 500 nM Ephydatia muelleri Gtsf1.
Procedure, shortened: as §1
For UCCUGGAUGUGCUUCCAUAGUAUUUAGUAA, the “pre-steady-state target cleavage rate” value was 0.00486 ± 0.003. In the case of UCCUGGAUGUCGAUGCAGAGUAUUUAGUUA, the “pre-steady-state target cleavage rate” value is reported as 0.00129 ± 0.0053. For UCCUGGAUGUCGAACCAUAGUAAUUAGUUA, the “pre-steady-state target cleavage rate” value was less than 0.0001. In the case of UCCUGGUACAGCUUCCAUAGUAUUUUGUUA, the “pre-steady-state target cleavage rate” value is reported as 0.000831 ± 0.01. In the case of UCCUGGUACACGAUGCAUAGUAUUUUCAAA, the “pre-steady-state target cleavage rate” value is reported as 0.000415 ± 0.0093. In the case of UCCUGGAUGAGCUUGCUAAGUAUUUAGUAA, the “pre-steady-state target cleavage rate” value is reported as 0.000381 ± 0.0092. With UCCUCCUGCAGCUUGCAUAGUAUUUAGUUA the “pre-steady-state target cleavage rate” value was 0.103 ± 0.024. UCCUGGAUGACGUUGCAUAGUAUUUAGAAA was tested, and the “pre-steady-state target cleavage rate” value was 0.00198 ± 0.0046. UCCUGGAACAGCUUGCAUAGUAAAUUCAAA was tested, and the “pre-steady-state target cleavage rate” value was 0.00113 ± 0.0039. With UCCUCCUUACAGCUUGCAUAGUAUUUAGUUA the “pre-steady-state target cleavage rate” value was 0.117 ± 0.03. With UCCUGGAUGUCGAAGCAUCGUAUUUAGUUA the “pre-steady-state target cleavage rate” value was 0.000856 ± 0.0095. UCCUGGAUCAGCUUCGAUAGUAUUUAGAAA was tested, and the “pre-steady-state target cleavage rate” value was 0.00107 ± 0.005. With UCCUGGAUGAGCUUCGAUAGUAUUUAGUAA the “pre-steady-state target cleavage rate” value was 0.000978 ± 0.0078. UCCUGGAUGUCGAACCAUAGUAUUUCGUUA was tested, and the “pre-steady-state target cleavage rate” value was less than 0.0001. UCCUGGAUGUCGUUCCAUACUAUUUAGUUA was tested, and the “pre-steady-state target cleavage rate” value was 0.000211 ± 0.016. UCCUGGAUCAGCUUGCACUAGUAUUUAGUUA was tested, and the “pre-steady-state target cleavage rate” value was 0.00365 ± 0.0027. With UCCUGGAUGUCGAACCAUAGUAUUUACGUUA the “pre-steady-state target cleavage rate” value was less than 0.0001. In the case of UCCUGGAUGUGCUUGCAUAGUAAAAAGUUA, the “pre-steady-state target cleavage rate” value is reported as 0.000209 ± 0.029. In the case of UCCUCCUACAGCUUGCAUAAUAUUUAGUUA, the “pre-steady-state target cleavage rate” value is reported as 0.00664 ± 0.0024. UCCUGGAUCAGCUUCGUUAGUAUUUACAAA was tested, and the “pre-steady-state target cleavage rate” value was 0.000359 ± 0.0093. In the case of UCCUGGAUGUCGAAGCAUAGCUAUUUAGUUA, the “pre-steady-state target cleavage rate” value is reported as 0.000175 ± 0.018. UCCUGGAUGUCGAUACAUAGUAUUUAGUUA was tested, and the “pre-steady-state target cleavage rate” value was 0.000337 ± 0.011. UCCUGGAUGUCGAAGCAUAGUAUUAUAGUUA was tested, and the “pre-steady-state target cleavage rate” value was 0.000727 ± 0.012. For UCCUGGAUGUCGUUCCAUUGUAUUUAGUUA, the “pre-steady-state target cleavage rate” value was 0.000397 ± 0.01. With UCCUGCUACAGCUUCGUUAGUAUUUAGAAA the “pre-steady-state target cleavage rate” value was 0.000196 ± 0.011. For UCCUGGUACAGCUUGGAUAGUAUUUACAAA, the “pre-steady-state target cleavage rate” value was 0.00114 ± 0.0035. With UCCUGGAUGUCCUUGCAAUAGUAUUUAGUUA the “pre-steady-state target cleavage rate” value was 0.00168 ± 0.0048. For UCCUGCUACAGCUUGCAUAGUUAUUAGUAA, the “pre-steady-state target cleavage rate” value was 0.00306 ± 0.0017. For UCCUCGUACAGCUUGCAUAGUAUUUAGUUA, the “pre-steady-state target cleavage rate” value was 0.163 ± 0.036. For UCCUGGAUGUCGUACCAUAGUAUUUAGUUA, the “pre-steady-state target cleavage rate” value was 0.000255 ± 0.015. With UCCUGGAACAGCUUGCAUUCUAUUUACAAA the “pre-steady-state target cleavage rate” value was 0.000551 ± 0.0066. With UCCUGGAUGUCGUAGCUUAGUAUUUAGUUA the “pre-steady-state target cleavage rate” value was 0.000285 ± 0.012. For UCCUGGAUCAGCUUGCAUACUAUUUUCAAA, the “pre-steady-state target cleavage rate” value was 0.000957 ± 0.0029. With UCCUGGAACAGCUUGCAUUCUAUUUUCAAA the “pre-steady-state target cleavage rate” value was 0.000398 ± 0.0063. For UCCUGGUACAGCUUGCAUUCAAUUUAGUUA, the “pre-steady-state target cleavage rate” value was 0.000236 ± 0.02.
